Assay: Evaluation of hue and vividness of recorded image
Assay type: physicochemical
Conditions: density (D value) about 1.0

## COc1cc(N=Nc2cccc(S(=O)(=O)[O-])c2)ccc1Nc1nc(Nc2ccc(N=Nc3cccc(S(=O)(=O)[O-])c3)cc2OC)nc(N(CCO)CCO)n1.[Na+].[Na+] [Comparative Example 1]
HG (Photo glossy film)
  Hue L*: 94.4
  Hue a*: −8.1
  Hue b*: 61.4
  Vividness C*: 61.9
PM (Paper for PM photo)
  Hue L*: 94.6
  Hue a*: −9.8
  Hue b*: 61.4
  Vividness C*: 62.2
PR (Professional photo paper)
  Hue L*: 95.2
  Hue a*: −8.4
  Hue b*: 60.3
  Vividness C*: 60.9
Plain Paper
  Hue L*: 89.1
  Hue a*: −1.4
  Hue b*: 62.7
  Vividness C*: 62.7

## COc1cc(N=Nc2cccc(S(=O)(=O)[O-])c2)ccc1NC(=O)Nc1ccc(N=Nc2cccc(S(=O)(=O)[O-])c2)cc1OC.[Na+].[Na+] [Comparative Example 2]
HG (Photo glossy film)
  Hue L*: 94.0
  Hue a*: −7.7
  Hue b*: 63.6
  Vividness C*: 64.1
PM (Paper for PM photo)
  Hue L*: 95.0
  Hue a*: −9.8
  Hue b*: 68.2
  Vividness C*: 68.9
PR (Professional photo paper)
  Hue L*: 95.4
  Hue a*: −8.4
  Hue b*: 64.4
  Vividness C*: 64.9
Plain Paper
  Hue L*: 88.7
  Hue a*: −0.4
  Hue b*: 68.6
  Vividness C*: 68.6

Reference: patent publication US20060169172A1, “Disazo compound and ink composition containing the same” (priority 2003, published 2006)
